Assay results taken from the supplement of paper PMC4635364.
Structures can show the parent of a compound that is named as a salt. Some of the results follow. Repeats in this data set agree poorly, so a single value says little.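 ReNCell VM, a human fetal ventral-midbrain neural progenitor line, was differentiated without mitogens. Blinded raters scored images stained for doublecortin (early neurons) or tyrosine hydroxylase (dopaminergic neurons) against untreated wells (0 = no change). Scores were averaged across repeats and both raters, and compounds averaging 2 or more were selected as hits for retesting.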

system: ReNCell VM; assay: dopaminergic neuron differentiation score (TH+ cell fraction vs untreated, manual image score) (score (0 to 3)); higher = more TH+ dopaminergic neuron differentiation; settings: library: Spectrum; 2 uM; 4 weeks; BDNF 10 ng/ml + GDNF 10 ng/ml

Structure (SMILES)	dopaminergic neuron differentiation score
CC(=O)OC/C=C(C)/C=C/C=C(C)/C=C/C1=C(C)CCCC1(C)C	inactive: 0
OCCN(CCO)c1nc(N2CCCCC2)c2nc(N(CCO)CCO)nc(N3CCCCC3)c2n1	inactive: 0
CN(C/C=C/C#CC(C)(C)C)Cc1cccc2ccccc12	inactive: 0
COc1ccc2c(c1)c(CC(=O)OCC(=O)O)c(C)n2C(=O)c1ccc(Cl)cc1	inactive: 0
CC(=O)c1ccc2c(c1)N(CCCN1CCN(CCO)CC1)c1ccccc1S2	inactive: 0
O=C(O)CCC(=O)OC[C@@H](NC(=O)C(Cl)Cl)[C@H](O)c1ccc([N+](=O)[O-])cc1	inactive: 0
NC1(C(=O)O)CC1	inactive: 0
Cc1cccc(C)c1OCC(C)N (stereo not drawn)	inactive: 0
CC(=O)Nc1ccc(S(=O)(=O)c2ccc(NC(C)=O)cc2)cc1	inactive: 0
CC1(C)C=Cc2c(c3c(c4c(=O)c(-c5ccc(O)cc5)coc24)OC(C)(C)CC3)O1	inactive: 0
C=CC1=C(C)c2cc3[nH]c(cc4nc(cc5[nH]c(cc1n2)c(C)c5CCC(=O)O)C(CCC(=O)O)=C4C)c(C)c3C=C	inactive: 0
CCN(CC)CCNC(=O)c1cc(S(C)(=O)=O)ccc1OC	inactive: 0
c1ccc(-c2ccc(C(c3ccccc3)n3ccnc3)cc2)cc1 (stereo not drawn)	inactive: 1
COc1ccc(-c2cc(=O)c3c(OC)c(OC)c(OC)cc3o2)cc1OC	active: 3
CC[N+](C)(CC)CCOC(=O)C(O)(c1ccccc1)C1CCCCC1 (stereo not drawn)	inactive: 0
CC(=O)N[C@@H](CCC(N)=O)C(=O)O	inactive: 0
N#Cc1ccc2[nH]cc(CCCCN3CCN(c4ccc5oc(C(N)=O)cc5c4)CC3)c2c1	inactive: 0
CNC(=O)c1c(I)c(NC(C)=O)c(I)c(C(=O)O)c1I	inactive: 0
CC(C)CCC[C@@H](C)[C@H]1CC[C@H]2[C@@H]3CC=C4C[C@@H](O)CC[C@]4(C)[C@H]3CC[C@]12C	inactive: 0
C[C@@H]1O[C@@H]1P(=O)(O)O	inactive: 0
CN(C)[C@@H]1C(O)=C(C(N)=O)C(=O)[C@@]2(O)C(O)=C3C(=O)c4c(O)ccc(Cl)c4[C@@](C)(O)[C@H]3C[C@@H]12	inactive: 0
CC(N)C12CC3CC(CC(C3)C1)C2 (stereo not drawn)	inactive: 0

Entries shown so far containing an NH in an aromatic ring:
Structure (SMILES)	dopaminergic neuron differentiation score
C=CC1=C(C)c2cc3[nH]c(cc4nc(cc5[nH]c(cc1n2)c(C)c5CCC(=O)O)C(CCC(=O)O)=C4C)c(C)c3C=C	inactive: 0
N#Cc1ccc2[nH]cc(CCCCN3CCN(c4ccc5oc(C(N)=O)cc5c4)CC3)c2c1	inactive: 0

same assay, conditions: library: Tocriscreen; 2 uM; 4 weeks; BDNF 10 ng/ml + GDNF 10 ng/ml

Structure (SMILES)	dopaminergic neuron differentiation score
O=C(O)Cc1cccc(OCCCN(Cc2cccc(C(F)(F)F)c2Cl)CC(c2ccccc2)c2ccccc2)c1 [GW 3965 hydrochloride]	inactive: 0
Cc1c(C(=O)NN2CCOCC2)nn(-c2ccc(Cl)cc2Cl)c1-c1ccc(I)cc1	inactive: 0
COCCNC(=O)COc1ccc(OCCNC[C@H](O)COc2ccccc2)cc1 [ZD 7114 hydrochloride]	inactive: 0
N[C@H](C(=O)O)c1cc(O)cc(O)c1	inactive: 0
CC(C)Oc1ccc2c(=O)c3cc(C(=O)O)ccc3oc2c1	inactive: 0
CN1CCC[C@@H]1Cc1c[nH]c2ccc(CCS(=O)(=O)c3ccccc3)cc12 [Eletriptan hydrobromide]	inactive: 0
